Laboratory results published in article PMC5688128, “Structural basis for tRNA-dependent cysteine biosynthesis” (Nature Communications, 2017).
No constants are given. Whether binding was seen depends on the method and setting. Some binding calls cover weakened binding; strength is not graded here.

T1: O-phosphoseryl-tRNA synthetase (SepRS), Methanocaldococcus jannaschii (Methanocaldococcus jannaschii) (UniProt Q59054)
T1 sequence: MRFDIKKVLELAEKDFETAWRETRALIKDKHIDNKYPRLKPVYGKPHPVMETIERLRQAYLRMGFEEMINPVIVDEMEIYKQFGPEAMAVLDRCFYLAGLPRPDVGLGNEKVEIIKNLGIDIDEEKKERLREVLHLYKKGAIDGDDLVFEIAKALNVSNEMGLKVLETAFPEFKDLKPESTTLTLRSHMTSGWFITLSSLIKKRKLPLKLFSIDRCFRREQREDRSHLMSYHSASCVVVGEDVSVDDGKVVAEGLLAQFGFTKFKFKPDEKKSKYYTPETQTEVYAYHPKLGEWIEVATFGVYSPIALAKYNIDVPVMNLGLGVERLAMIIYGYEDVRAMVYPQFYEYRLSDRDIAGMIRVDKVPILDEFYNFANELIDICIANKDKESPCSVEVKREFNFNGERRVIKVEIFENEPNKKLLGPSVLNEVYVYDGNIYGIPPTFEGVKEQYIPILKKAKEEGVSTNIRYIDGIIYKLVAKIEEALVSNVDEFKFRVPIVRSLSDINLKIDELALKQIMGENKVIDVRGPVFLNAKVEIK

T2: Sep-tRNA:Cys-tRNA synthase (SepCysS), Methanocaldococcus jannaschii (Methanocaldococcus jannaschii) (UniProt Q59072)
T2 sequence (chain, PLP covalently bound to the side chain of Lys234): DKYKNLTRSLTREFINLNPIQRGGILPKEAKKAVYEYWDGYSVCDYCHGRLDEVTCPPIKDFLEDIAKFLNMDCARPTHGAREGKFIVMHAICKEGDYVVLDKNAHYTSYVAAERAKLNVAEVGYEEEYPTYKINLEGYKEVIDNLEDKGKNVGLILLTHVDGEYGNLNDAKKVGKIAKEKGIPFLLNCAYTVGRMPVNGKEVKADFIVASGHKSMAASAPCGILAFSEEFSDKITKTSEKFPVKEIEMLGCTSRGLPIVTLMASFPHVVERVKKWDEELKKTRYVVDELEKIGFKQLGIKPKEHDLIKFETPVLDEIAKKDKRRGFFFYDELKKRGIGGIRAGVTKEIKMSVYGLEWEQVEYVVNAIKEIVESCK


Tests used:
[1] = target: T1, O-phosphoseryl-tRNA synthetase (SepRS), Methanocaldococcus jannaschii (Methanocaldococcus jannaschii); assay: condition: 100 µM SepRS variants, 400 µM SepCysE variants; SEC; 100 µM SepRS variants incubated with 400 µM SepCysE variants; Superdex 200 10/300 GL; 20 mM HEPES-NaOH pH 7.5, 300 mM NaCl, 10% glycerol; both purified
[2] = target: T2, Sep-tRNA:Cys-tRNA synthase (SepCysS), Methanocaldococcus jannaschii (Methanocaldococcus jannaschii); assay: crystal structure; SepCysE-SepCysS mixed with tRNA^Cys at a molar ratio of 1:1.2, protein 16 mg/ml; 0.1 M MES pH 5.0, 2.4 M ammonium sulfate; 2.6 Å; PDB 5X6B; both purified
[3] = target: T2, Sep-tRNA:Cys-tRNA synthase (SepCysS), Methanocaldococcus jannaschii (Methanocaldococcus jannaschii); assay: negative stain electron microscopy; purified wild type and del_linker1 transsulfursome adsorbed on carbon-coated grids; 20 mM HEPES-KOH pH 8.0, 200 mM KCl, 5 mM MgCl2; uranyl formate; class averaging; both purified

binding [1]	binding [2]	binding [3]	Binder
no binding	–	–	SepCysE(ΔN-helix), N-helix deletion mutant of M. jannaschii SepCysE (domain or fragment, UniProt Q58876 25-213) IRVEKDDKKISYKDAKPGKIDVNEFKKAIYLLIEADDFLYKKAPKHELNEEEAKEFCKLIIKCQEHLNKILANFGFEFEEKEIDEGALYIVSNKKLFKKLKNKNPNLKVVCTEGMLDIEDMRAIGVPEKALEGLKKKVEIARKNVERFIEKYKPEKIFVVVEDDKDELLYLRAKNLYNAEKLDADEILD
–	binds	binds	SepCysE (SepRS/SepCysS pathway enhancer), Methanocaldococcus jannaschii (natural protein, SepCysE of Methanocaldococcus jannaschii; wild type) MRVEYSKDLIRKGISTISQLKKAKIRVEKDDKKISYKDAKPGKIDVNEFKKAIYLLIEADDFLYKKAPKHELNEEEAKEFCKLIIKCQEHLNKILANFGFEFEEKEIDEGALYIVSNKKLFKKLKNKNPNLKVVCTEGMLDIEDMRAIGVPEKALEGLKKKVEIARKNVERFIEKYKPEKIFVVVEDDKDELLYLRAKNLYNAEKLDADEILD
–	–	binds	SepCysE(del_linker1) of M. jannaschii, 10 residues of linker1 truncated (natural protein, Methanocaldococcus jannaschii, source: E. coli B834(DE3) plus pRARE2, purified within the transsulfursome (same procedure as the wild type)) MRVEYSKDLIRKGISTISQLKKAKSYKDAKPGKIDVNEFKKAIYLLIEADDFLYKKAPKHELNEEEAKEFCKLIIKCQEHLNKILANFGFEFEEKEIDEGALYIVSNKKLFKKLKNKNPNLKVVCTEGMLDIEDMRAIGVPEKALEGLKKKVEIARKNVERFIEKYKPEKIFVVVEDDKDELLYLRAKNLYNAEKLDADEILD
